Results are given in words; binding and its absence hold for the method and conditions named. For some assays here: In cells and extracts the contact can be indirect. Some entries that bind do so weakly or less than the wild type. For some assays here: Tags and fused reporters may be left off the sequences shown.
Experiments:
[1] = target: full-length AR fused to LexA (LexA-AR) (UniProt P10275); assay: yeast two-hybrid, L40 cells, with 50 nM testosterone
[2] = target: GST-AR ZFR fusion protein (UniProt P10275); assay: GST pull-down, 35S-labeled in vitro translated protein, SDS-PAGE and fluorography

Protein sequences, listed by entry. Tags and fused reporters are not part of them. Lines headed by an entry give the natural chain unless they say otherwise; changes in a name come on top. Residues count along the entry.
UniProt P10275: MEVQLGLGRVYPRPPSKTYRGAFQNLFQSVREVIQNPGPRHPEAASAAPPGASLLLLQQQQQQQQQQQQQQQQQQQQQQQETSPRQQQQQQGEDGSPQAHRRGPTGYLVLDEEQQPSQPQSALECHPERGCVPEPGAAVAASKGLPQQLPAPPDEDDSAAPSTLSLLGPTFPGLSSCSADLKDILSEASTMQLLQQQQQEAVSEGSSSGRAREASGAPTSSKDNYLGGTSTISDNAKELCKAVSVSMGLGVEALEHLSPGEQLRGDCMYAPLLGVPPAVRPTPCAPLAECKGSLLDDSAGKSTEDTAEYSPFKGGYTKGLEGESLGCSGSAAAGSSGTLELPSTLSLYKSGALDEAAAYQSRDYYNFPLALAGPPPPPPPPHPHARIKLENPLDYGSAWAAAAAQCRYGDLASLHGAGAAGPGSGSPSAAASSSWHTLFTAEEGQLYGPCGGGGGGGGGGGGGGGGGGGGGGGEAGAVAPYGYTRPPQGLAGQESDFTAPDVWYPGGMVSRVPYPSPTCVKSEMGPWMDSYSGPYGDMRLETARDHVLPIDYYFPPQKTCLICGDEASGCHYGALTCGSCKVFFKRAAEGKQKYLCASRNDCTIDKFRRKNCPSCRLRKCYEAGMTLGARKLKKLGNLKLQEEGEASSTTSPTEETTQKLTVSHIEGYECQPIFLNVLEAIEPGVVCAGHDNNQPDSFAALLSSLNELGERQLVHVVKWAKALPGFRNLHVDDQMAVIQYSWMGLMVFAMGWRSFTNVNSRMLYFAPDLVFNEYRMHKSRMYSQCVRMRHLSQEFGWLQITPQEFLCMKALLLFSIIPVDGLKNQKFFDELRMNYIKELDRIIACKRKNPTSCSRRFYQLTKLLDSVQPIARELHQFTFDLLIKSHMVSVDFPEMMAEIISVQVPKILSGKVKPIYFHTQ
GST-AR ZFR fusion protein: residues 555-645 of P10275

B1: VP16 AD fused to ARIP4 (amino acids 86-227) (VP16 AD-ARIP4 ID) (protein)
chain: RHQGKILASEDPKKKRAQKPSHMRRNIRKLLREDQLEPVTKAAQQEELERRKRLEQQRKEYAAPIPTVPLEFLPEEIVLRASDGPQLPPRVLAQEVICLDSSSGSEDEKSSRDEVIELSSGEEDTLHIVDSSESVSEEDEEE
B1 was tested, and the binding [1] was “binds”.

B2: Full-length ARIP4 labeled with [35S]methionine by translation in vitro (protein)
chain: MSDESASGSDPDLDPDVELEDEEEEEEEEEVAVEEHDRDDEEGLLDDTSLEGMCGTEHAQLGEDGQRPPRCTSTTSSQSEPSEQLRHQGKILASEDPKKKRAQKPSHMRRNIRKLLREDQLEPVTKAAQQEELERRKRLEQQRKEYAAPIPTVPLEFLPEEIVLRASDGPQLPPRVLAQEVICLDSSSGSEDEKSSRDEVIELSSGEEDTLHIVDSSESVSEEDEEEEKGGTHVNDALNQHDALGRVLVNLNHPPEEENVFLAPQLARAVKPHQIGGIRFLYDNLVESLERFKTSSGFGCILAHSMGLGKTLQVISFIDVLFRHTPAKTVLAIVPVNTLQNWLAEFNMWLPAPEALPADSKPEEVQPRFFKVHILNDEHKTVASRAKVTADWVSEGGVLLMGYEMYRLLTLKKSLATSRPKKTKKRSHPVIIDLDEEDRQQEFRREFEKALCRPGPDVVICDEGHRIKNCQASTSQALKNIRSRRRVVLTGYPLQNNLIEYWCMVDFVRPDFLGTRQEFSNMFERPILNGQCIDSTPQDVRLMRYRSHVLHSLLEGFVQRRGHTVLKIHLPAKEENVILVRLSQIQRDLYTQFMDRFRDCGTSGWLGLNPLKAFCVCCKIWNHPDVLYEALQKENLANEQDLDVEELGSAGTSARCPPHGTKVKGEDSALPSSMGEATNSKFLQGVGFNPFQERGNNIVTYEWAKELLTNYQTGVLENSPKMVLLFHLIEESVKLGDKILVFSQSLSTLALIEEFLGKRDMPCLPGAEGQGTQKWVRNVSYFRLDGSTPAFERERLINQFNDPSNLTTWLFLLSTRAGCLGVNLIGANRVVVFDASWNPCHDAQAVCRVYRYGQKKPCHIYRLVADYTLEKKIYDRQISKQGMSDRVVDDLNPMLNFTRKEVENLLHFVEKEPAPQTSLDIKGIKESVLQLACLKYPHLITKEPFEHESLLLNRKDHKLTKAEKKAAKKSYEEDKRTSVPYTRPSYAQYYPASDQSLTSIPAFSQRNWQPTLKGDEKPVASVRPVQSTPIPMMPRHVPLSGGVSSASSTNTSMNFPINYLQRAGVLVQKVVTTTDIVIPGLNSSTDVQARINAGESIHIIRGTKGTYIRTSDGRIFAVRATGKPKAPEDGRMAASGSQGPSLASTSNGRHSASSPKAPDPEGLARPVSPDSPEIISELQQYADVAAARESRQSSPSISAALPGPPGQLMDNSTIPGTALGTEPCLGGHCLNSSLLVTGQPSGGRHPVLDLRGHKRKLATPSVTQESIRRRSRKGHLPAPVQPYEHGYPVSGGFAMPPVSLNHNLTTPFTSQAGENSLFMGSNPSYYQLSNLLADARLVFPVTTDPLVPAGPVSSSSTATSVTASNPSFMLNPSVPGMLPSYSLPFSQPLLSEPRMFAPFPSPGLPSNLSRGVSVYPGYMSPHAGYPAGGLLRSQVPPFDSHEVAEVGFSSNDDEDKDDDVIEVTGK
modifications: [35S]methionine label
With B2 the binding [2] was “binds”.
